Measured values: patent publication US20230100707A1, “MELANOMA THERAPEUTICS” (ESCAPE THERAPEUTICS, INC., priority 2020, published 2023)
Not every detail of the peptide structures is certain; ends, links or a residue may be inferred. Where no end group is shown, it is not given here.

Experiments:
Human Fibroblasts = experiment: Trypan blue dye exclusion toxicity on human fibroblasts; format: cell-based; conditions: for % toxicity: trypan blue
Method: (§1) Cellular toxicity was measured using a trypan blue dye exclusion assay. Cells were cultured in 6-well plates at a density of 4×10^5 cells per well. […] After 24 hours, an aliquot was taken and cells counted using a hemacytometer. Cytotoxicity was measured according to the following formula: […]
(§2) The same procedure was repeated after 3 and 6 days of incubation.

[1] = system: Human Primary Melanocytes; experiment: Trypan blue dye exclusion toxicity on human primary melanocytes; format: cell-based; conditions: for % toxicity: trypan blue
Method: as §1, §2

RRFVLL [P14, RRFVLL]
cell death (Human Fibroblasts; 1 millimolar, 72 hours of incubation, fibroblasts): 6%
% toxicity (Human Fibroblasts; Day 1, 10 μM): 0.1%
% toxicity (Human Fibroblasts; Day 1, 30 μM): 0.1%
% toxicity (Human Fibroblasts; Day 1, 100 μM): 0.1%
% toxicity (Human Fibroblasts; Day 1, 300 μM): 4.3%
% toxicity (Human Fibroblasts; Day 1, 1000 μM): 6.3%
% toxicity (Human Fibroblasts; Day 3, 10 μM): 0.1%
% toxicity (Human Fibroblasts; Day 3, 30 μM): 0.1%
% toxicity (Human Fibroblasts; Day 3, 100 μM): 0.1%
% toxicity (Human Fibroblasts; Day 3, 300 μM): 3.8%
% toxicity (Human Fibroblasts; Day 3, 1000 μM): 5.9%
% toxicity (Human Fibroblasts; Day 6, 10 μM): 0.1%
% toxicity (Human Fibroblasts; Day 6, 30 μM): 0.1%
% toxicity (Human Fibroblasts; Day 6, 100 μM): 0.1%
% toxicity (Human Fibroblasts; Day 6, 300 μM): 4.0%
% toxicity (Human Fibroblasts; Day 6, 1000 μM): 6.9%
cell death ([1]; 1 millimolar, 72 hours of incubation, melanocytes): 9%
% toxicity ([1]; Day 1, 30 μM): 0.1%
% toxicity ([1]; Day 1, 100 μM): 0.1%
% toxicity ([1]; Day 1, 300 μM): 0.1%
% toxicity ([1]; Day 1, 1000 μM): 6.3%
% toxicity ([1]; Day 1, 3000 μM): 7.9%
% toxicity ([1]; Day 3, 30 μM): 0.1%
% toxicity ([1]; Day 3, 100 μM): 0.1%
% toxicity ([1]; Day 3, 300 μM): 0.1%
% toxicity ([1]; Day 3, 1000 μM): 5%
% toxicity ([1]; Day 3, 3000 μM): 8.4%
% toxicity ([1]; Day 6, 30 μM): 0.1%
% toxicity ([1]; Day 6, 100 μM): 0.1%
% toxicity ([1]; Day 6, 300 μM): 0.1%
% toxicity ([1]; Day 6, 1000 μM): 7.9%
% toxicity ([1]; Day 6, 3000 μM): 11.6%
